According to patent US20060024658A1, “Composition and methods for evaluating an organism's response to alcohol or stimulants” (priority 1998, published 2006):

Experiments:
SHSY-5Y cells = assay: Effects of alcohols on gene expression (array hybridization intensity) in SHSY-5Y cells, Study 1; assay type: cell-based, human; conditions: 100 mM ethanol
Description: Hybridization strength is given a baseline of 1 and increased intensity is expressed in as a multiple of the baseline, i.e., 2-fold, 3-fold, 4-fold etc.
Column 1 lists the presumed functional class of the gene.
Columns are similar to Table 8.

[1] = tested on: human neuroblastoma SH-SY5Y cells; assay: Oligonucleotide array (Affymetrix GeneChip Hu6800) gene expression profile after ethanol
[2] = 72 h, 50, 100 or 150 mM ethanol, >=1.5 fold criterion and filtering

Compound: CCO [ethanol]
- number of genes decreased in expression: Cell Signaling (SHSY-5Y cells; acute, 2 hr): 9
- number of genes decreased in expression: Cell division (SHSY-5Y cells; acute, 2 hr): 0
- number of genes decreased in expression: Cell structure (SHSY-5Y cells; acute, 2 hr): 1
- number of genes decreased in expression: Defense/homeostasis (SHSY-5Y cells; acute, 2 hr): 3
- number of genes decreased in expression: Gene/protein expression (SHSY-5Y cells; acute, 2 hr): 4
- number of genes decreased in expression: Metabolism (SHSY-5Y cells; acute, 2 hr): 3
- number of genes decreased in expression: Totals (SHSY-5Y cells; acute, 2 hr): 23
- number of genes decreased in expression: Unclassified (SHSY-5Y cells; acute, 2 hr): 3
- number of genes increased in expression by 1.5-fold or more: Cell Signaling (SHSY-5Y cells; acute, 2 hr): 9
- number of genes increased in expression by 1.5-fold or more: Cell division (SHSY-5Y cells; acute, 2 hr): 1
- number of genes increased in expression by 1.5-fold or more: Cell structure (SHSY-5Y cells; acute, 2 hr): 0
- number of genes increased in expression by 1.5-fold or more: Gene/protein expression (SHSY-5Y cells; acute, 2 hr): 7
- number of genes increased in expression by 1.5-fold or more: Metabolism (SHSY-5Y cells; acute, 2 hr): 3
- number of genes increased in expression by 1.5-fold or more: Totals (SHSY-5Y cells; acute, 2 hr): 22
- number of genes increased in expression by 1.5-fold or more: Unclassified (SHSY-5Y cells; acute, 2 hr): 1
- number of genes decreased in expression: Cell Signaling (SHSY-5Y cells; chronic, 72 hr): 3
- number of genes decreased in expression: Cell division (SHSY-5Y cells; chronic, 72 hr): 0
- number of genes decreased in expression: Cell structure (SHSY-5Y cells; chronic, 72 hr): 1
- number of genes decreased in expression: Defense/homeostasis (SHSY-5Y cells; chronic, 72 hr): 0
- number of genes decreased in expression: Gene/protein expression (SHSY-5Y cells; chronic, 72 hr): 3
- number of genes decreased in expression: Metabolism (SHSY-5Y cells; chronic, 72 hr): 1
- number of genes decreased in expression: Totals (SHSY-5Y cells; chronic, 72 hr): 9
- number of genes decreased in expression: Unclassified (SHSY-5Y cells; chronic, 72 hr): 1
- number of genes increased in expression: Cell Signaling (SHSY-5Y cells; chronic, 72 hr): 13
- number of genes increased in expression: Cell division (SHSY-5Y cells; chronic, 72 hr): 0
- number of genes increased in expression: Gene/protein expression (SHSY-5Y cells; chronic, 72 hr): 3
- number of genes increased in expression: Metabolism (SHSY-5Y cells; chronic, 72 hr): 3
- number of genes increased in expression: Totals (SHSY-5Y cells; chronic, 72 hr): 22
- number of genes increased in expression: Unclassified (SHSY-5Y cells; chronic, 72 hr): 1
- number of genes down regulated [1, 2]: 18
- number of genes up regulated [1, 2]: 24
- number of genes differentially regulated ([1]; 3 days treatment, 50, 100 or 150 mM ethanol): 42
